The source of these data is article PMC7733952.

The assay concerns the target T1, endogenous STING of RAW264.7 cells (mouse (endogenous in RAW264.7)) (UniProt Q3TBT3).
T1 sequence: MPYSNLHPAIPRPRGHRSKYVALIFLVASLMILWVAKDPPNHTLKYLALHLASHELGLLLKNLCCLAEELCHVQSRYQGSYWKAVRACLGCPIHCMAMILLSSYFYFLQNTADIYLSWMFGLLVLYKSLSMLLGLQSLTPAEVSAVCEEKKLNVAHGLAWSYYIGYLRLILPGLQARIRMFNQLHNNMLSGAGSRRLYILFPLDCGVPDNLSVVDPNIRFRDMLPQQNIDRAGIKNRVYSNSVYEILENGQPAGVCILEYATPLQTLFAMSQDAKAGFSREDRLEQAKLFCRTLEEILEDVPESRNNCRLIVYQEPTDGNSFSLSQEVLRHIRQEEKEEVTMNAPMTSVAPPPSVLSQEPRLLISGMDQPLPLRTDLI
Nature of the assay: affinity purification with mass spectrometry.

No constants are given. Whether binding was seen depends on the method and setting. In cells and extracts the contact can be indirect. These calls come from enrichment with a bait or labelling near it, and not all partners need be listed.

B1: M. tuberculosis MmsA (Rv0753c) from H37Rv in infected RAW264.7 cells (protein, UniProt O53816 1-510)
chain: MTTQISHFIDGQRTAGQSTRSADVFDPNTGQIQAKVPMAGKSDIDAAVASAVEAQKGWAAWNPQRRARVLMRFIELVNDTIDELAELLSREHGKTLADARGDVQRGIEVIEFCLGIPHLLKGEYTEGAGPGIDVYSLRQPLGVVAGITPFNFPAMIPLWKAGPALACGNAFVLKPSERDPSVPVRLAELFIEAGLPAGVFQVVHGDKEAVDAILHHPDIKAVGFVGSSDIAQYIYAGAAATGKRAQCFGGAKNHMIVMPDADLDQAVDALIGAGYGSAGERCMAISVAVPVGDQTAERLRARLIERINNLRVGHSLDPKADYGPLVTGAALARVRDYIGQGVAAGAELVVDGRDRASDDLTFGLPEGDANLEGGFFIGPTLFDHVAAHMSIYTDEIFGPVLCMVRARDYEEALRLPSEHEYGNGVAIFTRDGDAARDFVSRVQVGMVGVNVPIPVPVAYHTFGGWKRSGFGDLNQHGPAAIQFYTKVKTVTSRWPSGIKDGAEFVIPTMS
Turning to B1, the binding entry is “binds”.

B2: SFPQ (protein, UniProt Q8VIJ6 1-699)
chain: MSRDRFRSRGGGGGGFHRRGGGGGRGGLHDFRSPPPGMGLNQNRGPMGPGPGGPKPPLPPPPPHQQQQQPPPQQPPPQQPPPHQQPPPHQPPHQQPPPPPQESKPVVPQGPGSAPGVSSAPPPAVSAPPANPPTTGAPPGPGPTPTPPPAVPSTAPGPPPPSTPSSGVSTTPPQTGGPPPPPAGGAGPGPKPGPGPGGPKGGKMPGGPKPGGGPGMGAPGGHPKPPHRGGGEPRGGRQHHAPYHQQHHQGPPPGGPGPRTEEKISDSEGFKANLSLLRRPGEKTYTQRCRLFVGNLPADITEDEFKRLFAKYGEPGEVFINKGKGFGFIKLESRALAEIAKAELDDTPMRGRQLRVRFATHAAALSVRNLSPYVSNELLEEAFSQFGPIERAVVIVDDRGRSTGKGIVEFASKPAARKAFERCSEGVFLLTTTPRPVIVEPLEQLDDEDGLPEKLAQKNPMYQKERETPPRFAQHGTFEYEYSQRWKSLDEMEKQQREQVEKNMKDAKDKLESEMEDAYHEHQANLLRQDLMRRQEELRRMEELHSQEMQKRKEMQLRQEEERRRREEEMMIRQREMEEQMRRQREESYSRMGYMDPRERDMRMGGGGTMNMGDPYGSGGQKFPPLGGGGGIGYEANPGVPPATMSGSMMGSDMRTERFGQGGAGPVGGQGPRGMGPGTPAGYGRGREEYEGPNKKPRF
Consider B2, for which the binding result is reported as “binds”.
